Experiment [1] has as its target purified human Factor Bb (human) (UniProt P00751). As to the kind of experiment: ELISA, human Factor Bb coated at 1 µg/mL. (In general: An ELISA detects its analyte on a solid surface through an enzyme-linked reagent.)
Experiment [2] has the same target. The experiment can be described thus: antigen-capture ELISA.
Experiment [3] shares this target. As to the kind of experiment: ELISA; human Factor Bb coated at 1 µg/mL, mAb in 3-fold dilutions from 10 µg/mL, HRP goat anti-mouse, OD450.
The target is the same in experiment [4]. The experiment can be described thus: ELISA on Factor Bb coated plate (pharmacokinetic assay).
The target of experiment [5] is full-length Factor B (UniProt P00751). The experiment can be described thus: size exclusion chromatography, complex in solution.
For experiment [6] the target is unchanged. As to the kind of experiment: antigen-capture ELISA, biotinylated factor B at 1 µg/mL.
For experiment [7], the target named is purified human Factor Bb (human) (UniProt P00751). As to the kind of experiment: antigen-capture ELISA, biotinylated factor Bb at 1 µg/mL.

Sequences of proteins named here, by UniProt entry; tags and fusion partners are left off. Residues count along the entry.
UniProt P00751, residues 26-764: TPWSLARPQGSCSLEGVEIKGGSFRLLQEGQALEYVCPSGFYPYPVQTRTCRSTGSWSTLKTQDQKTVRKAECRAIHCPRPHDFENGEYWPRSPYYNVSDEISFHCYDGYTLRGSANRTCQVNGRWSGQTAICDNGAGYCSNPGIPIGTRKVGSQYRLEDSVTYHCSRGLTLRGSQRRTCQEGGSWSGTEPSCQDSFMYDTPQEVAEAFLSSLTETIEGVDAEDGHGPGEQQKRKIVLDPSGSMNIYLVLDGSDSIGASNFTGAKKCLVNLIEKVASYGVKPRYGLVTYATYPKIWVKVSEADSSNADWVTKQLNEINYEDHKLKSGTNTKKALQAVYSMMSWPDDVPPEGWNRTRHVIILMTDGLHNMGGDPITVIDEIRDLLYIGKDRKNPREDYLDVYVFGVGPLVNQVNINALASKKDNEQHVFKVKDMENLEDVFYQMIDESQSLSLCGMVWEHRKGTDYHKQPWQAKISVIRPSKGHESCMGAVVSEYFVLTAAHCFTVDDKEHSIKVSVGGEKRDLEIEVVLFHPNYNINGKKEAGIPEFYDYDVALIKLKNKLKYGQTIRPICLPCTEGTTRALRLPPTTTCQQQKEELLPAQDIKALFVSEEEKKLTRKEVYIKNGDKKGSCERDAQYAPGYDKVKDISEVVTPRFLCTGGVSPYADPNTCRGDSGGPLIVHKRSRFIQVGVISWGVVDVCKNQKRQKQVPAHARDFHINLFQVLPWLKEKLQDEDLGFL

These are yes or no findings as the source states them, for the method shown. Some binding calls cover weakened binding; strength is not graded here.

B1: anti-factor Bb monoclonal antibody M10 (antibody, V domains shown)
VH: EVQLVESGGALVKPGGSLKLSCAASGFTFSNYAMSWVRQTPEKRLEWVATISNRGSYTYYPDSVKGRFTISRDNAKNTLYLQMSSLRSEDTALYYCARERPMDYWGQGTSVTVSS
VL: DIVMTQSHKFMSTSVGDRVSITCKASQDVGTAVAWYQQKPGQSPKLLIYWASTRHTGVPDRFTGSGSGTDFTLTITNVQSEDLAVYFCHQHSSNPLTFGAGTKLELK
For the molecule B1, the binding entry in experiment [1], in experiment [2] and in experiment [3] was “binds” in each case.

B2: anti-factor Bb monoclonal antibody M18 (antibody, V domains shown)
VH: EVQLVESGGALVKPGGSLKLSCAASGFTFSNYAMSWVRQTPEKRLEWVATISNRGSYTYYPDSVKGRFTISRDNAKNTLYLQMSSLRSEDTALYYCARERPMDYWGQGTSVTVSS
VL: DIVMTQSHKFMSTSVGDRVSITCKASQDVGTAVAWYQQKPGQSPKLLIYWASTRHTGVPDRFTGSGSGTDFTLTITNVQSEDLAVYFCHQHSSNPLTFGAGTKLELK
Turning to B2, the binding entry in experiment [1], in experiment [2] and in experiment [3] was “binds” throughout.

B3: chimeric M10 (antibody, human IgG4, V domains shown)
VH: EVQLVESGGALVKPGGSLKLSCAASGFTFSNYAMSWVRQTPEKRLEWVATISNRGSYTYYPDSVKGRFTISRDNAKNTLYLQMSSLRSEDTALYYCARERPMDYWGQGTSVTVSS
VL: DIVMTQSHKFMSTSVGDRVSITCKASQDVGTAVAWYQQKPGQSPKLLIYWASTRHTGVPDRFTGSGSGTDFTLTITNVQSEDLAVYFCHQHSSNPLTFGAGTKLELK
For the molecule B3, the binding entry in experiment [4] was “binds”.

B4: anti-factor Bb monoclonal antibody M4 (antibody, V domains shown)
VH: EVQLQQSGPELVKPGASVKMSCKASGYSFTDYLMNWVKQSHGKSLEWIGRINPYNGDAFYNQRFKGKATLTVDKSSSTAHMELRSLTSEDSALYYCARLENDYGFTYWGQGTLVTVSA
VL: DIVMTQAAFSNPVTLGTSASISCSSSKSLLHSNGITYLYWYLQRPGQSPQLLIYRMSNLASGVPDRFSGSGSGTDFTLRISRVEAEDVGVYYCAQMLERPWTFGGGTKLEIK
In the case of B4, the binding entry in experiment [1], in experiment [5], in experiment [6] and in experiment [3] was “binds” in each case.

B5: anti-factor Bb monoclonal antibody M12 (antibody, V domains shown)
VH: EVQLQQSGPELVKPGASVKMSCKASGYSFTDYLMNWVKQSHGKSLEWIGRINPYNGDAFYNQRFKGKATLTVDKSSSTAHMELRSLTSEDSALYYCARLENDYGFTYWGQGTLVTVSA
VL: DIVMTQAAFSNPVTLGTSASISCSSSKSLLHSNGITYLYWYLQRPGQSPQLLIYRMSNLASGVPDRFSGSGSGTDFTLRISRVEAEDVGVYYCAQMLERPWTFGGGTKLEIK
Turning to B5, the binding entry in experiment [1], in experiment [5], in experiment [6] and in experiment [3] was “binds” throughout.

B6: chimeric M4 (antibody, human IgG4, V domains shown)
VH: EVQLQQSGPELVKPGASVKMSCKASGYSFTDYLMNWVKQSHGKSLEWIGRINPYNGDAFYNQRFKGKATLTVDKSSSTAHMELRSLTSEDSALYYCARLENDYGFTYWGQGTLVTVSA
VL: DIVMTQAAFSNPVTLGTSASISCSSSKSLLHSNGITYLYWYLQRPGQSPQLLIYRMSNLASGVPDRFSGSGSGTDFTLRISRVEAEDVGVYYCAQMLERPWTFGGGTKLEIK
Consider B6, for which the binding entry in experiment [4] is reported as “binds”.

B7: anti-factor Bb monoclonal antibody M17 (antibody, V domains shown)
VH: EVQLVESGGVLVKPGGSLKLSCAASGFTFSNFAMSWVRQTPAKRLEWVATISNGGGYTYYPDSVQGRFTISRDNANNTLYLQMSSLRSEDTALYYCARIYYGSSYEDWFAYWGQGTLVTVSA
VL: DIVMTPSHKFMSTSVGDRVSITCKASQDVGSAVAWYQQKPGHSPKLLIFWASTRHTGVPDRFTGSGSGTDFTLTISNVQSEDLADYFCQQYSSYPYTFGGGTRLEIK
Consider B7, for which the binding result in experiment [7], in experiment [1], in experiment [2] and in experiment [3] was “binds” in each case.

Values taken from patent US20240228599A1.
